{"source": "patent US7902143B2", "about": "“Cancer antigen peptide and the use thereof” (Toray Industries, Inc., priority 2004, dated 2011)", "key": {"[1]": {"tested_on": "HLA-A0201-positive and CD8-positive T cells", "assay": "Proliferation of peptide-stimulated CD8-positive T cells, counting of the cell number under microscope", "assay_type": "cell-based, human", "conditions": "T cells from HLA-A0201-positive healthy donor stimulated with peptide-pulsed dendritic cells"}, "[2]": {"tested_on": "T2 cells pulsed with the peptide, which expressed HLA-A0201 molecules", "assay": "IFN-γ production (ELISA) by peptide-specific CD8-positive T cells co-cultured with peptide-pulsed T2 cells", "assay_type": "cell-based, human", "conditions": "5×10^3 T cells + 5×10^4 T2 cells pulsed with peptide 10 μg/ml; 24 hours; compared with T2 cells not pulsed; FIG. 1, FIG. 5"}}, "note": "At least one peptide structure holds a part that was inferred or is arguable (an end, a ring closure or a residue). Ends that are not written are not given here."}
{"sequence": "FGSQRFSKIASNTQSRR [SEQ ID NO:3]", "values": [{"measurement": "proliferation of T cells stimulated by the peptide", "setting": "[1]", "result": "confirmed to have proliferated"}, {"measurement": "production amount of IFN-γ in culture supernatant", "setting": "[2]", "result": "prominent production of IFN-γ"}]}
